Assay results published in article PMC8807037.
Results are given in words; binding and its absence hold for the method and conditions named. In cells and extracts the contact can be indirect. Some results given as binding are weak or reduced against the parent protein; the word gives no strength. For some of these results: Sequences can lack the tags named with a protein.

Legend:
[1] = molecular target: T1, His-tagged Golgi membrane protein 1 (GOLM1) (human (cloned from SKOV3)) (UniProt Q8NBJ4); test: co-IP; 293T cells cotransfected with His-GOLM1 and Flag-B7-H3; lysis in RIPA (150 mM NaCl, 50 mM Tris pH 7.6); primary antibody or IgG overnight at 4°C, protein A/G Sepharose beads; western blotting; reciprocal co-IP
T1 sequence: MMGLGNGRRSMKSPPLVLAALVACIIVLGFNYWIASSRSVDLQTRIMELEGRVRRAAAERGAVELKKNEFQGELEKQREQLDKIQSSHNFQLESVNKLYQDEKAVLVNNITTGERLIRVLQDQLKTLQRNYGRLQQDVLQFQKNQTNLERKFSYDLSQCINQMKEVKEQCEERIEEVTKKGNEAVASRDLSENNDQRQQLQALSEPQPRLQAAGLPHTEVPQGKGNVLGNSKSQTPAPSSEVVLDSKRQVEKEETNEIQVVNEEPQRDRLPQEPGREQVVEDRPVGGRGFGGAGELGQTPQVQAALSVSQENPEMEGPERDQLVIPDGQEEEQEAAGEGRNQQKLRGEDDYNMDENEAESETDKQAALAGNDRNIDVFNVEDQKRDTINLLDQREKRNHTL

[2] = molecular target: T2, FLAG-tagged B7-H3 (human) (UniProt Q5ZPR3); test: as above
T2 sequence: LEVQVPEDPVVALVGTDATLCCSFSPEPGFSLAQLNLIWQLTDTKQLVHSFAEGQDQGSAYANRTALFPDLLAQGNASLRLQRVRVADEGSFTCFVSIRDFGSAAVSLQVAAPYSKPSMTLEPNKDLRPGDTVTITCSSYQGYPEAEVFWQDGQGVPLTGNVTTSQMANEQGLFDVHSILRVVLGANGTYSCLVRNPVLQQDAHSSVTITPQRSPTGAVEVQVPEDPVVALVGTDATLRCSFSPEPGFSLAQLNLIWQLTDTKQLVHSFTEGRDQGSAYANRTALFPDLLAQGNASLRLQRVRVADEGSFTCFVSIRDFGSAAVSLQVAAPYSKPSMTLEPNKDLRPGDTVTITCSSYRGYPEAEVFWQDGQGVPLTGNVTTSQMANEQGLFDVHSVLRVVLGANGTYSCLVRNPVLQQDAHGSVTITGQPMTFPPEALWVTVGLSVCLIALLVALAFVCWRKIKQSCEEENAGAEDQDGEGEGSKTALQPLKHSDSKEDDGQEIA

[3] = molecular target: T3, Golgi membrane protein 1 (GOLM1), endogenous in SKOV3 (human (endogenous in SKOV3)) (UniProt Q8NBJ4); test: co-IP; endogenous proteins in SKOV3 lysate; lysis in RIPA (150 mM NaCl, 50 mM Tris pH 7.6); IP with anti-GOLM1 or anti-B7-H3 antibody overnight at 4°C, protein A/G Sepharose beads; western blotting for the other protein
T3 sequence: T1 sequence

[4] = molecular target: T4, B7-H3, endogenous in SKOV3 (human (endogenous in SKOV3)) (UniProt Q5ZPR3); test: as above
T4 sequence: T2 sequence

B1: FLAG-tagged B7-H3 (protein, UniProt Q5ZPR3 29-534)
chain: T2 sequence
**Q.** Which binding [1] does the source give for B1 here?
**A.** binds

B2: His-tagged Golgi membrane protein 1 (GOLM1) (protein, UniProt Q8NBJ4 1-401)
chain: T1 sequence
**Q.** Which binding [2] does the source give for B2 here?
**A.** binds

B3: B7-H3, endogenous in SKOV3 (protein, UniProt Q5ZPR3 29-534)
chain: T2 sequence
**Q.** How did the binding [3] turn out when B3 was run?
**A.** binds

B4: Golgi membrane protein 1 (GOLM1), endogenous in SKOV3 (protein, UniProt Q8NBJ4 1-401)
chain: T1 sequence
**Q.** With B4 as the binder, how does the binding [4] read?
**A.** binds
